Data on one compound can be found in paper PMC5042352 (Analytical methods : advancing methods and applications, 2016).

This series is classed as in vivo, human (Chinese male healthy subjects). Conditions: after i.m. injection of the compound medicine BSP and BDP.

The structures appear in SMILES notation.

Regarding `C[C@H]1C[C@H]2[C@@H]3CCC4=CC(=O)C=C[C@]4(C)[C@@]3(F)[C@@H](O)C[C@]2(C)[C@@]1(O)C(=O)COP(=O)([O-])[O-].[Na+].[Na+]` [BSP, betamethasone sodium phosphate], the “plasma concentration in healthy subjects' plasma samples (detectability)” value is “could not be detected”.
